Results from the supplement of paper PMC6411743.
± gives the standard deviation of the averaged measurements. This is a selection; strong and weak results do not stand in their true shares. Most entries show no effect beyond the scatter of the controls.

Sequences of proteins named here, by UniProt entry; tags and fusion partners are left off. A change or cut given only in a name is not applied to a line headed by its entry.
UniProt Q6GMV3: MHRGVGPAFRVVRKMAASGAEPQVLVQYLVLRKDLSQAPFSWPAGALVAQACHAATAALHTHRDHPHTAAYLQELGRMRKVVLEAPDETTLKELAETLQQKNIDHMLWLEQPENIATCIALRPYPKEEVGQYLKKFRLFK
UniProt Q5VV42: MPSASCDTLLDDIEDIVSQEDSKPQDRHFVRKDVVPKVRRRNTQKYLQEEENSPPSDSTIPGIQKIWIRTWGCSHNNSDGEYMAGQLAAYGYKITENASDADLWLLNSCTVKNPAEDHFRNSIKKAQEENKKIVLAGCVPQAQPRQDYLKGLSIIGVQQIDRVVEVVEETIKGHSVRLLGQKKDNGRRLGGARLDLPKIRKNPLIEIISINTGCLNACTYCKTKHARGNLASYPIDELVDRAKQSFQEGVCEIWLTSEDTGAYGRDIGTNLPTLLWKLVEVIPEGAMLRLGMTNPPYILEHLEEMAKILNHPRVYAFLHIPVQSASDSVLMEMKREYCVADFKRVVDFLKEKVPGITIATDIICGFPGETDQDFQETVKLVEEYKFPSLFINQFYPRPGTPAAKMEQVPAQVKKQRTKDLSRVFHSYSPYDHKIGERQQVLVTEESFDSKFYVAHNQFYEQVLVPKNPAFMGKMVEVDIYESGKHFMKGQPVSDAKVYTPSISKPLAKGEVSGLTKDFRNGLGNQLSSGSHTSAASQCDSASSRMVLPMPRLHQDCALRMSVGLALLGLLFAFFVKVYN
UniProt Q66K14, whole entry: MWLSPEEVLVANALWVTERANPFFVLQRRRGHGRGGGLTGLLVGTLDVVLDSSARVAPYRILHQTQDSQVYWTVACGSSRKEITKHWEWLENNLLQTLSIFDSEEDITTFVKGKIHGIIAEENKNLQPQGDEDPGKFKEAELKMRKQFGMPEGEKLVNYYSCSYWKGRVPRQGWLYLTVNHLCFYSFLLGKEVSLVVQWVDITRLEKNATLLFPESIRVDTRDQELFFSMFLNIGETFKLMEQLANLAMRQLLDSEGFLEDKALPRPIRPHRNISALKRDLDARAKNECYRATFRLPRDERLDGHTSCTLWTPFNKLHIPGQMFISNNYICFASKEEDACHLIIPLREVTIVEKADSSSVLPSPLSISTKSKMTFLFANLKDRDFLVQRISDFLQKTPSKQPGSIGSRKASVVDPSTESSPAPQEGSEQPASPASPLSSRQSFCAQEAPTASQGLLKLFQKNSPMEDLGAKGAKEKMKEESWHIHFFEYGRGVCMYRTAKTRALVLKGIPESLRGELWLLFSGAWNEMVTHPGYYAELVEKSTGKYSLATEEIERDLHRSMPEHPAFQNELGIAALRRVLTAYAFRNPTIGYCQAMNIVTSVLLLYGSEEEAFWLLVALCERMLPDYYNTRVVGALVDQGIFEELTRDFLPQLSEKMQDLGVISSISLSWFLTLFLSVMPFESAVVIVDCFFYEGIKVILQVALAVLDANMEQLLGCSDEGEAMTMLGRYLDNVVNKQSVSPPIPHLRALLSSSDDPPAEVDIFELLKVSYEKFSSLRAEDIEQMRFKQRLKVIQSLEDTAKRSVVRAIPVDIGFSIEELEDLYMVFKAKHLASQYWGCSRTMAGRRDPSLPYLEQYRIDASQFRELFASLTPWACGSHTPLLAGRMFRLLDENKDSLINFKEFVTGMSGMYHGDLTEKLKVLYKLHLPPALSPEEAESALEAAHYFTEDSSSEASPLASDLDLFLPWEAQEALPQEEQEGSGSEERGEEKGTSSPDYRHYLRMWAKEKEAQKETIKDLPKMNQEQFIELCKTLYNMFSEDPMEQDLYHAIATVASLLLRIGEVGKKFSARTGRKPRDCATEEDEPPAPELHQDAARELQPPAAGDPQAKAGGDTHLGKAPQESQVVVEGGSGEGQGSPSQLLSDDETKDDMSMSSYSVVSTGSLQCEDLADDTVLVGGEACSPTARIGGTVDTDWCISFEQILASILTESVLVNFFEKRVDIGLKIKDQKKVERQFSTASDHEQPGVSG
UniProt Q7L775: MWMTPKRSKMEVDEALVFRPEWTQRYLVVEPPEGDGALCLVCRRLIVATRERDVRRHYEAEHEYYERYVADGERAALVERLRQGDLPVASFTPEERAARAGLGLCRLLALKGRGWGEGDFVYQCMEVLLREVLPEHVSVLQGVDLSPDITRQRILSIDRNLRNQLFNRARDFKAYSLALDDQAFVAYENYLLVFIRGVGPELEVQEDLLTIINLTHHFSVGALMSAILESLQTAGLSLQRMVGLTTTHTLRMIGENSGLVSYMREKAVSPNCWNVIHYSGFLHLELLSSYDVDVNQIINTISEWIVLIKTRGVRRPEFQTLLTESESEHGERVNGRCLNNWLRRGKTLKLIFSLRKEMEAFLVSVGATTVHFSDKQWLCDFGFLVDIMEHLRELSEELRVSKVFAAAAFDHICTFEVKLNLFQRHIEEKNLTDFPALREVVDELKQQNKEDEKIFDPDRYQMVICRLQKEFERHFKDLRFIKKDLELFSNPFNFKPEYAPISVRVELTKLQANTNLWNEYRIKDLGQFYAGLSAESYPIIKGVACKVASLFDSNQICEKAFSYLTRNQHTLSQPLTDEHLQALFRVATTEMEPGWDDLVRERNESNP
UniProt Q6PI48: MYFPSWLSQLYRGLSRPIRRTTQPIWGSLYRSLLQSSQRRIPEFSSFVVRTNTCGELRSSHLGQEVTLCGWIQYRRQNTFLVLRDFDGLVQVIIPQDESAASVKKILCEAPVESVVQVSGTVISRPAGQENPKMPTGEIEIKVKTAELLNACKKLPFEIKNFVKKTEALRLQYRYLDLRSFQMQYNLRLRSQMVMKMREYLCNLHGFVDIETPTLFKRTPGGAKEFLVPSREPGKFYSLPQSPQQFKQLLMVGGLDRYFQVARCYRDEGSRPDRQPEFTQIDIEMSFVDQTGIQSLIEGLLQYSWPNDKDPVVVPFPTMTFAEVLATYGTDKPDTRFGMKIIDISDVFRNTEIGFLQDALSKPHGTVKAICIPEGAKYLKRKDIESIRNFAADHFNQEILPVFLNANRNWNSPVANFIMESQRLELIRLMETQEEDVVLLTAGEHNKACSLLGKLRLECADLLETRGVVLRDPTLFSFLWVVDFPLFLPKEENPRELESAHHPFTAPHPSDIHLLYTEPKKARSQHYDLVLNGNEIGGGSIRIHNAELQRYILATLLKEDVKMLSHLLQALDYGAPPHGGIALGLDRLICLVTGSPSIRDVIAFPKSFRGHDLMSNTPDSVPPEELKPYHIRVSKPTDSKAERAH
UniProt Q7Z422: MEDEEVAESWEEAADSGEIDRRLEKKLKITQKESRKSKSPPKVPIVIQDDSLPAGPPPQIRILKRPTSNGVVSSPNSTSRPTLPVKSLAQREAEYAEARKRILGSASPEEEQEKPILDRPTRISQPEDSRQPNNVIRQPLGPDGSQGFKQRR
UniProt Q75QN2, whole entry: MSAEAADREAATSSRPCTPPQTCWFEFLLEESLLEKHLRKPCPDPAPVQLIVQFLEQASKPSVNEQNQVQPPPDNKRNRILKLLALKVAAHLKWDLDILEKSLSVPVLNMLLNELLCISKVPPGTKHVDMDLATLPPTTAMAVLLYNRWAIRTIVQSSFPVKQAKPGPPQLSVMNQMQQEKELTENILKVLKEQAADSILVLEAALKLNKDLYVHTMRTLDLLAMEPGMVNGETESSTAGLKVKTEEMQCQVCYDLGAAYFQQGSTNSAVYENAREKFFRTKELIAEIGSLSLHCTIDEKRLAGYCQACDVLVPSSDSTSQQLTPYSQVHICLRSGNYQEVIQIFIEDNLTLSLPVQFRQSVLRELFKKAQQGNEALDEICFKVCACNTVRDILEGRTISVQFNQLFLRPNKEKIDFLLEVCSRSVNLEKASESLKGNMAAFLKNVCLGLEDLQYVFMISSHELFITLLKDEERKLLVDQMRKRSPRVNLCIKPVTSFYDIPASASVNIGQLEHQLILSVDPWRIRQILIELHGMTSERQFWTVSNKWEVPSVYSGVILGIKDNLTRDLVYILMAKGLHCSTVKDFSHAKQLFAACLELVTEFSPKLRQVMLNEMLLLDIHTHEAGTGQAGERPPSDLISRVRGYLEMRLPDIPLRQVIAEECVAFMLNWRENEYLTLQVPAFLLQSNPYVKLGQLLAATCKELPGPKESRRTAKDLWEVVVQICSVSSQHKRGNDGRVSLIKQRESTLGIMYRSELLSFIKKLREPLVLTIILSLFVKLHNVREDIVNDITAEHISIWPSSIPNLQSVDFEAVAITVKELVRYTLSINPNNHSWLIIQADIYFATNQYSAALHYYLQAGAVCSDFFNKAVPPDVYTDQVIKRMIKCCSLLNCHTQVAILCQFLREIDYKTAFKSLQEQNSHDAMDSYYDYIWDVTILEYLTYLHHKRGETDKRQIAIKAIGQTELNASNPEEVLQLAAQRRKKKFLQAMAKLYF
UniProt Q71RC2, whole entry: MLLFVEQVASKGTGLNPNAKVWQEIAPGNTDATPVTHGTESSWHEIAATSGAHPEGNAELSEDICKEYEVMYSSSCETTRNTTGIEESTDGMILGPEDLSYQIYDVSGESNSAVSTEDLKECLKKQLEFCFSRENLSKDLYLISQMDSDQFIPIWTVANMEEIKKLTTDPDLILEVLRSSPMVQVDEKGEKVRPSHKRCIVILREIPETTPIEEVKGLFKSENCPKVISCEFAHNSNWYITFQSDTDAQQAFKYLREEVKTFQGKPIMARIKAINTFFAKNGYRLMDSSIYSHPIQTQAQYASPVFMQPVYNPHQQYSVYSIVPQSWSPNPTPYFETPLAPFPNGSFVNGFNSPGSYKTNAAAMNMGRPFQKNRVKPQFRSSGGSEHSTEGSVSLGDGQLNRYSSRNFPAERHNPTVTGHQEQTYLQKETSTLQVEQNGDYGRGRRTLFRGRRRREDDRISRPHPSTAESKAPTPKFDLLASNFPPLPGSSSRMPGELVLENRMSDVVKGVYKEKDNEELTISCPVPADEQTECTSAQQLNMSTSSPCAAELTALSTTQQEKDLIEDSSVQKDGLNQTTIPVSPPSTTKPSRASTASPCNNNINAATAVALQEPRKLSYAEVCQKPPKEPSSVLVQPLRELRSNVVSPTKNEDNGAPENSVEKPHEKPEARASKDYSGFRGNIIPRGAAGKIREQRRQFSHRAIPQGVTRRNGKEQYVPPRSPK
UniProt Q6DKK2: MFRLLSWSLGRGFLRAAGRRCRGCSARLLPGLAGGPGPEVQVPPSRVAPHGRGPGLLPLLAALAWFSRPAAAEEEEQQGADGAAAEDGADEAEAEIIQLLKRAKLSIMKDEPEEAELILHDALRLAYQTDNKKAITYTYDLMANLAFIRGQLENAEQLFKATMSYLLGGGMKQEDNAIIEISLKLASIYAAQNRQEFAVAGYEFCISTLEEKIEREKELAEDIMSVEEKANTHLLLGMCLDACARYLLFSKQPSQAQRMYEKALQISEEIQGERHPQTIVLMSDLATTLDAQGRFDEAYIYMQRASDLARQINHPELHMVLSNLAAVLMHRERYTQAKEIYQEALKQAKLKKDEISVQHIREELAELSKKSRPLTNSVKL
UniProt Q6P3S1: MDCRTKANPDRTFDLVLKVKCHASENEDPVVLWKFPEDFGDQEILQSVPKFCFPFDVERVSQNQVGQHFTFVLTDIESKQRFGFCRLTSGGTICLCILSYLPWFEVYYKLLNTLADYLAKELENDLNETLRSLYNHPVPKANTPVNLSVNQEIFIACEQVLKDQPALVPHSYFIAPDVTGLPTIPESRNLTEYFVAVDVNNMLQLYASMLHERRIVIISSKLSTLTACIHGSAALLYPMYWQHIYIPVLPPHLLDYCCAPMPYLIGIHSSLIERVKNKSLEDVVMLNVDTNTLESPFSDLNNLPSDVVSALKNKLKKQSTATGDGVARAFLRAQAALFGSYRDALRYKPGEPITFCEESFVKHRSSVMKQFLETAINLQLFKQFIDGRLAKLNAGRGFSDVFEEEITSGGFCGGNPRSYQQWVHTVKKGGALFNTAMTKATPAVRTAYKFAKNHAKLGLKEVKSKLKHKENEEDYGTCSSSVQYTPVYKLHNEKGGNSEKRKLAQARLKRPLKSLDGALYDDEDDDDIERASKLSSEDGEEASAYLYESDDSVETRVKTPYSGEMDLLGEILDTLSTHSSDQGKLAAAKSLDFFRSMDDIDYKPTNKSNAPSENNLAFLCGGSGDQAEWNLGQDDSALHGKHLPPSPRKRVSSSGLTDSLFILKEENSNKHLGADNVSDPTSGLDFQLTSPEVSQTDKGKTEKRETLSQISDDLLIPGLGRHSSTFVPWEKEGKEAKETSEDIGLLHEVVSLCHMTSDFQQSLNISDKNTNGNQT
UniProt Q69YI7: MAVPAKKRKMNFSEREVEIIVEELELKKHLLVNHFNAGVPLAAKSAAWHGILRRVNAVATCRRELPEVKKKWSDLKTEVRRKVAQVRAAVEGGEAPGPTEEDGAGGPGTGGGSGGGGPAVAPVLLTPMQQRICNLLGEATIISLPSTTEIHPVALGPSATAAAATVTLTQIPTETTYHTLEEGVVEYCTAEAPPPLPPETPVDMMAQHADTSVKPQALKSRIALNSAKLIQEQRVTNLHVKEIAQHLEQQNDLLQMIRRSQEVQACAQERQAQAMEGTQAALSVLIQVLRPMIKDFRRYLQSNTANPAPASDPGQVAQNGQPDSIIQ

Compound: Nc1ncnc2c1ncn2[C@@H]1O[C@H](COP(=O)(O)OP(=O)(O)NP(=O)(O)O)[C@@H](O)[C@H]1O [adenylyl imidodiphosphate]
Experiment: NP40-soluble protein abundance relative to vehicle (solubility fold change) (ratio); higher = more soluble protein in presence of AMP-PNP
Outline: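 Each value is a fold change relative to the detergent-processed vehicle, calculated per replicate from vsn-normalised intensities. Jurkat crude lysate received eight concentrations (0.1 to 10 mM) for 10 min at room temperature and 3 min at 37 °C, then was solubilised in 0.8% NP40 with benzonase (60 min, 4 °C). The ultracentrifuged supernatant was TMT-labelled and run by LC-MS/MS in three independent experiments.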

Target	NP40-soluble protein abundance (concentration: 0.1mM)	NP40-soluble protein abundance (concentration: 0.5mM)
UniProt Q7L2E3-2	1.05 ± 0.014	1.03 ± 0.027
UniProt Q5VWN6	1.01 ± 0.037	0.999 ± 0.018
UniProt Q6KCM7 and related entries	1.069 ± 0.0042	1.07 ± 0.046
SNX30 (UniProt Q5VWJ9)	0.976 ± 0.022	0.997 ± 0.003
UniProt Q6GMV3	0.963 ± 0.041	0.99 ± 0.062
UniProt Q684P5-2|Q684P5-3|Q684P5	0.99 ± 0.011	0.978 ± 0.037
CDKAL1 (UniProt Q5VV42)	1 ± 0.029	0.978 ± 0.039
PRPF8 (UniProt Q6P2Q9)	1.08 ± 0.034	1.01 ± 0.13
UniProt Q66K14-2|Q66K14	0.9742 ± 0.0056	0.9591 ± 0.0063
ZFYVE16 (UniProt Q7Z3T8)	0.972 ± 0.022	0.993 ± 0.037
UniProt Q6YP21 and related entries	1.03 ± 0.018	0.986 ± 0.086
UniProt Q7Z2W9 and related entries	1.05 ± 0.016	1.03 ± 0.054
UniProt Q6UXH1 and related entries	0.944 ± 0.043	0.984 ± 0.04
TMEM65 (UniProt Q6PI78)	0.948 ± 0.018	0.982 ± 0.023
RFWD3 (UniProt Q6PCD5)	1.003 ± 0.0027	0.98 ± 0.013
UniProt Q6P1J9	1 ± 0.025	0.982 ± 0.031
UniProt Q68E01 and related entries	0.983 ± 0.021	0.999 ± 0.038
UniProt Q6NXT6 and related entries	0.9395 ± 0.0023	0.974 ± 0.045
LIN54 (UniProt Q6MZP7)	0.984 ± 0.023	1.01 ± 0.054
EPM2AIP1 (UniProt Q7L775)	0.976 ± 0.02	0.986 ± 0.023

Target	NP40-soluble protein abundance (concentration: 0.1mM)	NP40-soluble protein abundance (concentration: 0.5mM)
PRPF38B (UniProt Q5VTL8)	1.01 ± 0.067	1.02 ± 0.047
DARS2 (UniProt Q6PI48)	1.01 ± 0.052	0.968 ± 0.082
UniProt Q6PCB8 and related entries	0.978 ± 0.021	1.02 ± 0.049
UniProt Q6ZRS2 and related entries	0.976 ± 0.035	1.02 ± 0.046
TTC27 (UniProt Q6P3X3)	1.02 ± 0.016	0.991 ± 0.055
UniProt Q5VZL5 and related entries	0.97 ± 0.026	1 ± 0.015
LYPLAL1 (UniProt Q5VWZ2)	1.02 ± 0.025	0.977 ± 0.04
UniProt Q7Z422 and related entries	1.03 ± 0.042	1.05 ± 0.026
RAB12 (UniProt Q6IQ22)	1 ± 0.051	1.01 ± 0.032
UniProt Q765P7	1.01 ± 0.028	1.01 ± 0.036
UniProt Q75QN2 and related entries	0.978 ± 0.055	0.952 ± 0.024
TAOK1 (UniProt Q7L7X3)	1.01 ± 0.033	1.02 ± 0.016
SLC30A9 (UniProt Q6PML9)	1.02 ± 0.035	0.9969 ± 0.0082
UniProt Q6P2H3 and related entries	0.991 ± 0.018	0.988 ± 0.039
TTC37 (UniProt Q6PGP7)	0.849 ± 0.069	0.813 ± 0.057
SASS6 (UniProt Q6UVJ0)	0.994 ± 0.018	1.01 ± 0.035
FAM91A1 (UniProt Q658Y4)	1.01 ± 0.037	0.982 ± 0.068
UniProt Q70UQ0 and related entries	1 ± 0.075	0.999 ± 0.048
ANKRD11 (UniProt Q6UB99)	0.976 ± 0.016	1.02 ± 0.047
UniProt Q71RC2 and related entries	1.022 ± 0.0017	1.01 ± 0.031

Target	NP40-soluble protein abundance (concentration: 0.1mM)	NP40-soluble protein abundance (concentration: 0.5mM)
UniProt Q6P444	1.03 ± 0.013	1.01 ± 0.018
UniProt Q5VW36 and related entries	1 ± 0.02	0.959 ± 0.04
TTC19 (UniProt Q6DKK2)	1 ± 0.072	1.02 ± 0.038
UniProt Q6STE5 and related entries	1.02 ± 0.027	0.9996 ± 0.0073
UniProt Q5VSL9	0.964 ± 0.015	0.976 ± 0.047
UniProt Q6P3S1 and related entries	0.9981 ± 0.0018	1.01 ± 0.019
USP34 (UniProt Q70CQ2)	0.98 ± 0.038	0.938 ± 0.054
MICAL3 (UniProt Q7RTP6)	1 ± 0.035	0.989 ± 0.024
UniProt Q7Z3K6 and related entries	1 ± 0.041	1 ± 0.042
MON1B (UniProt Q7L1V2)	1.01 ± 0.021	1.05 ± 0.021
UniProt Q6Y7W6 and related entries	0.974 ± 0.018	0.989 ± 0.049
CBLL1 (UniProt Q75N03)	0.994 ± 0.026	0.966 ± 0.023
UniProt Q7Z5L9 and related entries	1.01 ± 0.028	0.989 ± 0.038
UniProt Q6FIF0 and related entries	0.975 ± 0.022	0.999 ± 0.049
UniProt Q6ZMI0	0.982 ± 0.029	0.998 ± 0.054
UniProt Q70Z53 and related entries	0.968 ± 0.034	0.982 ± 0.054
TTC21B (UniProt Q7Z4L5)	1.017 ± 0.0068	1.01 ± 0.014
NAIF1 (UniProt Q69YI7)	0.9714 ± 0.0026	0.999 ± 0.019
UniProt Q6PJW8	0.996 ± 0.0068	0.979 ± 0.029
UniProt Q6UW63	0.998 ± 0.011	0.995 ± 0.032

Some values from the list:
In NP40-soluble protein abundance (concentration: 0.1mM), PRPF38B (UniProt Q5VTL8) is entered as 1.01 ± 0.067
In NP40-soluble protein abundance (concentration: 0.5mM), UniProt Q5VSL9 is entered as 0.976 ± 0.047
In NP40-soluble protein abundance (concentration: 0.5mM), PRPF8 (UniProt Q6P2Q9) is entered as 1.01 ± 0.13
In NP40-soluble protein abundance (concentration: 0.5mM), TAOK1 (UniProt Q7L7X3) is entered as 1.02 ± 0.016
